Results taken from PMC4951750.
Construct, isoform or probe ends are uncertain for at least one entry. For some assays here: A weaker result is weaker than the reference pair of the same experiment. Tags and fusion partners may be left off the protein sequences shown. For some assays here: At least one verdict rests on a figure or table, not on a statement of the authors.

Assays:
[1] = biological target: T1, SOX9 (a.a. 1-300) (Homo sapiens) (UniProt P48436); test: EMSA; settings: 20 mM HEPES pH 7.9, 50 mM KCl, 0.1% NP-40, 0.5 mM EDTA, 40 mM DTT, 1 mM PMSF, 30 ug BSA, 20 ng poly(dG-dC), 5 fmol probe, 20 ng SOX9, 25 ul, 10 min at 37 C, recombinant protein, residues 1-300, protein details: His-tag (pET23 vector), label: 32P-dCTP by Klenow fill-in
T1 sequence (looked up): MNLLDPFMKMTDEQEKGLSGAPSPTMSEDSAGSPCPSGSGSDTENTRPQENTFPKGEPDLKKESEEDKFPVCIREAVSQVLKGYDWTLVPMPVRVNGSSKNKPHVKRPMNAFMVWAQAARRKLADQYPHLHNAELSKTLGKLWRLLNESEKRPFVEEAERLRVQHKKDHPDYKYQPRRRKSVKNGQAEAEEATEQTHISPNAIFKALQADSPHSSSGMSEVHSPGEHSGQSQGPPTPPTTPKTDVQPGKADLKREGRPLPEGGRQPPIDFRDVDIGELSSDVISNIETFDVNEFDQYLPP

[2] = biological target: T1, SOX9 (a.a. 1-300) (Homo sapiens); test: EMSA supershift; settings: anti-SOX9 antibody, Cy3 probe; 20 mM HEPES pH 7.9, 50 mM KCl, 0.1% NP-40, 0.5 mM EDTA, 40 mM DTT, 1 mM PMSF, 30 ug BSA, 20 ng poly(dG-dC), 5 fmol probe, 20 ng SOX9, 25 ul, 10 min at 37 C; recombinant protein; residues 1-300; protein details: His-tag (pET23 vector); label: 32P-dCTP by Klenow fill-in, 5' Cy3 in Fig. S1

Sequence | binding result ([1]; 5' Cy3 in Fig. S1) | binding result [2] | binding result ([1]; slightly reduced vs Probe A) | binding result ([1]; bound weakly)
GGCGCTTGAGAAAAGCCCCATTCATGAGAGG (double strand) [Col2a1 intron 1 probe] | binds | binds | – | –
GGTTGTGTAGGACTCCATTCAGTTCTGCGGC (double strand) | – | – | binds more weakly | –
GGTTGTGTAGGACTCCATTCAGTTCTTTGGC (double strand) [Ctgf Probe A (-83/-55), printed as Probe B in Methods] | binds | binds | – | –
GGCCTGTTTGTGTAGGACTCCAGCCAGTTCT (double strand) | – | – | – | binds more weakly
GGCCTGTTTGTGTAGGACTCCATTCAGTTCT (double strand) [Ctgf Probe B (-88/-60), printed as Probe A in Methods] | binds | binds | – | –
